These are yes or no findings as the source states them, for the method shown.
How the values were obtained:
Assay in all cases: capture ELISA: NI-0801 coated, NusA fusion protein titrated, detected with anti-NusA antibody, fluorescence
cyRantes (cynomolgus) = biological target: cyRantes (cynomolgus)
huRantes (human) = biological target: huRantes (human)
cyMIG (cynomolgus) = biological target: cyMIG (cynomolgus)
huMIPa (human) = biological target: huMIPa (human)
huMIPb (human) = biological target: huMIPb (human)
moRantes (mouse) = biological target: moRantes (mouse)

binding (cyRantes (cynomolgus)): no binding (tested: about 2.5e-7 M)
binding (huRantes (human)): no binding (tested: about 2.5e-7 M)
binding (cyMIG (cynomolgus)): no binding (tested: about 2.5e-7 M)
binding (huMIPa (human)): no binding (tested: about 2.5e-7 M)
binding (huMIPb (human)): no binding (tested: about 2.5e-7 M)
binding (moRantes (mouse)): no binding (tested: about 2.5e-7 M)
B1: NI-0801 (IgG1-formatted) (antibody, V domains shown)
VH: QVQLVESGGGVVQPGRSLRLSCAASGFTFSNSGIHWVRQAPGKGLEWVAVISYDGSNKYYADSVKGRFTISRDNSKNTLYLQMNSLRAEDTAVYYCARLRDNAEYTDYWGQGTLVTVSS
VL: NFMLTQPHSVSESPGKTVTISCTGSGGSIASNYVQWYQQRPGSSPTTVIYEDNQRPSGVPDRFSGSIDSSSNSASLTISGLKTEDEADYYCQSYDPLPVWVFGGGTKLTVLG

Source: patent US20130216549A1
